Laboratory results taken from patent US20210062219A1.
No constants are given. Whether binding was seen depends on the method and setting. In cells and extracts the contact can be indirect. Some entries that bind do so weakly or less than the wild type.

The chains behind the UniProt entries cited, without tags or fusion partners.
UniProt Q8TAG9: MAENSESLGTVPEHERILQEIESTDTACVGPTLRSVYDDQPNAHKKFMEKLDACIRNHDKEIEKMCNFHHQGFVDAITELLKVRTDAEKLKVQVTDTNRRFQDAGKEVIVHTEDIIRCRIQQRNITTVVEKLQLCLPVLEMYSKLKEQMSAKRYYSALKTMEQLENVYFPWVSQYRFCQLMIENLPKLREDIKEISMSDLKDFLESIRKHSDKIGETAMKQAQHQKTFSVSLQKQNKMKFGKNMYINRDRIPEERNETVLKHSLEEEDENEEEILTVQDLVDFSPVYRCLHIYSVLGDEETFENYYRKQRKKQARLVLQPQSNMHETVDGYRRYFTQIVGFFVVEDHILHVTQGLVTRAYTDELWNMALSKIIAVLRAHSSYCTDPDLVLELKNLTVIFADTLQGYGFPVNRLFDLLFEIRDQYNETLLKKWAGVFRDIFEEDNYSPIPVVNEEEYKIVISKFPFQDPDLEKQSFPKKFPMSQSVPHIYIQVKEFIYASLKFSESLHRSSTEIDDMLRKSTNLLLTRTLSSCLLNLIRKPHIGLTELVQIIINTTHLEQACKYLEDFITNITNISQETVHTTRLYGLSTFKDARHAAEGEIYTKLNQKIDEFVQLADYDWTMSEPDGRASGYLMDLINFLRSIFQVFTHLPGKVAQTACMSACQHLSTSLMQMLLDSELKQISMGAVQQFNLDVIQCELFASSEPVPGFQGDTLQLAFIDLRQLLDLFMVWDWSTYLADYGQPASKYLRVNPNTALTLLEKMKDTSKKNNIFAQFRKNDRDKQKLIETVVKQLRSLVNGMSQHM
UniProt O00471: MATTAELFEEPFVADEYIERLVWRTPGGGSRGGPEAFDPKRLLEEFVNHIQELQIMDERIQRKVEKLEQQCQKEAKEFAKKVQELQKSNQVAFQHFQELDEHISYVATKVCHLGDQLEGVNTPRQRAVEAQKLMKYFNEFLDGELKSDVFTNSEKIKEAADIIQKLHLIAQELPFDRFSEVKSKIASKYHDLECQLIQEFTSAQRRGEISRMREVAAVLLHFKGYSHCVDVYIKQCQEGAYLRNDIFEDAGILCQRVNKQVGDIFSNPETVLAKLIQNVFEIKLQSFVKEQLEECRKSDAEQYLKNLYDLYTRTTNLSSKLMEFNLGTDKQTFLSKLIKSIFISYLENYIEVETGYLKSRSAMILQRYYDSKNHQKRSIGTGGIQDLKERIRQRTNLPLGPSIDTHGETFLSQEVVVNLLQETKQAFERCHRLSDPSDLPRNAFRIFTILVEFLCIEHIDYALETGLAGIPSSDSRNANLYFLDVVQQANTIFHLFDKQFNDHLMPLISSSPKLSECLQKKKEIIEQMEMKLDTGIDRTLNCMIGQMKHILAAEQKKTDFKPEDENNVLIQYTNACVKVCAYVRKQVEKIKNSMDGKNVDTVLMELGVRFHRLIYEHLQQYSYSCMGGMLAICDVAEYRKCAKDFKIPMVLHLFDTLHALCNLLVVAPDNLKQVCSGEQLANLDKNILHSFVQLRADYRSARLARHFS

Biological target: EXOC6 (94 kDa), subunit of the human exocyst complex (human) (UniProt Q8TAG9)
Test: Strep affinity co-purification through Twin-Strep-tagged EXOC5 from co-infected Sf9 cells, SDS-PAGE

Q: For “EXOC5 with a Twin-strep tag (expressed from recombinant plasmid 4V2-E1S5 / final transfer plasmid E1S547 / baculovirus BV-E1S547) (from UniProt O00471 1-708)”, which binding is on record?
A: binds
